# Experimental data taken from publication PMC9953847.
# The exact form of at least one protein or probe is not confirmed.
# Test system: cytochrome c
# Assay: QCM-D
# Settings: BSA blocked, PBS (10 mM) with 2 mM CaCl2, pH 7.4, flow 50 uL/min for lipid film assays, assay temperature not stated, single-stranded DNA
Sequence,"binding result (cyt c (0.5-10 uM) covalently bound to MUA, bare AuNWs gave no change, 5'-NH2 coupled by EDC/NHS to MUA on gold nanowires, label: gold nanowire)","binding result (1 uM aptamer, cyt c (2 uM) covalently bound to MUA, frequency decrease, smaller than with AuNWs, 5'-NH2)"
TTTTTTTTTTATCGATAAGCTTCCAGAGCCGTGTCTGGGGCCGACCGGCGCATTGGGTACGTTGTTGCCGTAGAATTCCTGCAGCC [NH2-Apt-cytc on AuNWs],binds,–
TTTTTTTTTTATCGATAAGCTTCCAGAGCCGTGTCTGGGGCCGACCGGCGCATTGGGTACGTTGTTGCCGTAGAATTCCTGCAGCC [NH2-Apt-cytc],–,binds
